Data as given in PubChem BioAssay AID686937 (Drosophila RNAi Screening Center, 2013)
Assay: 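Knock-downs that reduce output of a secreted reporter enzyme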 (primary screen). Cell system: Drosophila S2 cells expressing secreted horseradish peroxidase. Reagents: long dsRNA against Drosophila genes. Duration: about 5.5 days (5 days dsRNA, then 12 h reporter induction). Conditions: reporter expression induced after 5 days of dsRNA, read 12 h later; inducer not stated. Read-out: 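Chemiluminescent measurement of peroxidase in the medium 12 h after reporter induction, following 5 days of dsRNA, given as a z-score per plate; higher means more secretion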. Reading the numbers: z-score: higher = more reporter secreted into medium.
In all, the deposit lists about 23,000 reagents; shown is an unselected part of those with a known target gene and a result. 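Reduced-secretion tags in replicate 1 do not always agree with the z-scores; no criterion for assigning the tags was given.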 Reagents against one gene are numbered here. A plus sign joins genes that one reagent is predicted to hit. Not all columns of the deposit are shown. Not given: the amount of reagent.

no.	target gene	reagent	z-score, replicate 1	z-score, replicate 2
1	MstProx + Mst84Da	1	0.17	0.57
2	CG9393	1	0.53	0.51
3	CG7272	1	0.24	0.23
4	Grasp65	1	0.07	0.11
5	CG32811	1	0.03	0.49
6	CG2841	1	0.45	0.52
7	CG2841	2	0.28	0.33
8	CG2841	3	-0.35	0.49
9	Mtr4	1	-2.59	-1.21
10	CG16879 (retired record)	1	-1.31	0.22
11	CG16879 (retired record)	2	-0.11	-0.26
12	CG11426	1	-0.12	0.27
13	Mob4	1	-0.12	-0.28
14	Cyp313a4	1	0.25	0.21
15	CG34248	1	0.04	0.1
16	CG16952	1	0.26	0.29
17	CG31370	1	1.17	1.38
18	CG2336	1	0.17	0.34
19	CG13708	1	0.28	0.28
20	RacGAP84C	1	0.09	0.68
21	Naa80	1	0.45	0.79
22	ACOX1	1	0.32	0.19
23	Skp2	1	-0.4	-0.8
24	CG18265	1	-0.27	0.29
25	CG42675	1	0.42	0.27
26	CG42675	2	0.47	0.33
27	arg	1	0.3	0.1
28	Pdp	1	0.33	0.35
29	msl-1	1	0.33	0.23
30	link	1	-1	-0.05
31	CG8149	1	0.32	0.13
32	atilla	1	0.17	0.09
33	GXIVsPLA2	1	0.32	0.29
34	ORMDL	1	0.28	0.23
35	CG3529	1	0.34	0.09
36	Gga	1	0.26	0.15
37	JYalpha	1	0.26	0.35
38	Lap1	1	0.04	0.14
39	CG32081	1	0.56	0.42
40	CG32236	1	-0.05	0
41	Zip42C.2	1	0	0.24
42	Muc26B	1	0.18	0.24
43	CG6048	1	0.38	0.66
44	CG18418	1	0.34	0.41
45	CG4666	1	0.28	0.49
46	CG33259	1	0.24	0.15
47	alpha-Est4	1	0.16	0.25
48	CG10853	1	0.46	0.31
49	Akr1B	1	0.22	0.24
50	CalpC	1	0.42	0.62
51	lncRNA:CR30121	1	0.03	-0.03
52	CG16787	1	-0.13	0.19
53	CG32102	1	0.09	0.38
54	Srp9	1	-0.63	-0.41
55	Pph13	1	0.33	0.46
56	CG33169	1	-0.5	-0.98
57	botv	1	0.57	0.39
58	CG18131	1	-0.28	-0.11
59	CG15705	1	0.47	0.33
60	poe	1	0.68	0.54
61	CG14756	1	-0.07	-0.15
62	EMC3	1	-0.23	-0.45
63	Spn42Dc	1	0.2	-0.16
64	rst	1	0.21	-0.31
65	rst	2	0.36	0.42
66	tok	1	0.37	0.54
67	Hao + Pex6	1	0.43	0.43
68	Hao + Pex6	2	-0.02	-0.1
69	cerv	1	0	0.08
70	CG7974	1	-1.61	-0.6
71	salm	1	0.07	0.35
72	CG43293	1	-0.49	-0.44
73	CG17380	1	0.29	0.41
74	HLH4C	1	0.33	0.24
75	HLH4C	2	1.48	1.03
76	CG14174	1	0.17	0.17
77	conv	1	0.09	0.3
78	CG14957	1	-1.32	-0.56
79	CG10920	1	-0.2	-0.14
80	Trf2	1	-1.1	-1
81	CG14564	1	0.4	0.32
82	CG14564	2	1.14	1.16

8 entries from above, reformatted.
CG43293
- z-score, replicate 1: -0.49
- z-score, replicate 2: -0.44

CG17380
- z-score, replicate 1: 0.29
- z-score, replicate 2: 0.41

HLH4C #1
- z-score, replicate 1: 0.33
- z-score, replicate 2: 0.24

HLH4C #2
- z-score, replicate 1: 1.48
- z-score, replicate 2: 1.03

CG14174
- z-score, replicate 1: 0.17
- z-score, replicate 2: 0.17

conv
- z-score, replicate 1: 0.09
- z-score, replicate 2: 0.3

CG14957
- z-score, replicate 1: -1.32
- z-score, replicate 2: -0.56

CG10920
- z-score, replicate 1: -0.2
- z-score, replicate 2: -0.14
